No constants are given. Whether binding was seen depends on the method and setting. In cells and extracts the contact can be indirect. Some binding calls cover weakened binding; strength is not graded here. Where a sequence is shown, tags or fusion partners need not be part of it. Values belong to the binder of their own block, whether it stands above or below them.
Key:
[1] = molecular target: Biotinylated H3 (1–13) peptide, H3K4me2 (UniProt P68431); assay: pull-down; biotinylated H3 (1–13) peptides on streptavidin Dynabeads, incubated with bacterial crude lysate expressing GST-Taf3-PHD; 2 h, 4°C; 50 mM Tris–HCl pH 8.0, 150 mM NaCl, 0.5% NP-40, 10 μM ZnCl2; SDS–PAGE, Coomassie; only the target purified
[2] = molecular target: Biotinylated H3 (1–13) peptide, unmodified (H3K4me0) (UniProt P68431); assay: as above
[3] = molecular target: Biotinylated H3 (1–13) peptide, H3K4me3 (UniProt P68431); assay: as above
[4] = molecular target: Biotinylated H3 (1–13) peptide, H3Q5ser (H3K4me0) (UniProt P68431); assay: as above
[5] = molecular target: Biotinylated H3 (1–13) peptide, H3K4me2Q5ser (UniProt P68431); assay: as above
[6] = molecular target: Biotinylated H3 (1–13) peptide, H3K4me1 (UniProt P68431); assay: as above
[7] = molecular target: T1, H3K4me2 peptide, biotinylated: H-ARTK(Me2)…(biotin)-NH2; assay: pull-down; biotinylated H3 peptides immobilised on Dynabeads M-280 Streptavidin, incubated with bacterial crude lysate expressing GST-Taf3-PHD; 50 mM Tris-HCl pH 8.0, 150 mM NaCl, 0.5% NP-40, 10 uM ZnCl2, 2 h at 4°C; SDS-PAGE, Coomassie; only the target purified
T1 sequence (peptide, dimethyl-lysine at 4; biotin on the C-terminal lysine (K14); C-terminal amide): ARTKQTARKSTGGK

[8] = molecular target: T2, H3 peptide, unmodified, biotinylated: H-…(biotin)-NH2; assay: as above
T2 sequence (peptide, biotin on the C-terminal lysine (K14); C-terminal amide): ARTKQTARKSTGGK

[9] = molecular target: T3, H3K4me3 peptide, biotinylated: H-ARTK(Me3)…(biotin)-NH2; assay: as above
T3 sequence (peptide, trimethyl-lysine at 4; biotin on the C-terminal lysine (K14); C-terminal amide): ARTKQTARKSTGGK

[10] = molecular target: T4, H3K4me1 peptide, biotinylated: H-ARTK(Me)…(biotin)-NH2; assay: as above
T4 sequence (peptide, monomethyl-lysine at 4; biotin on the C-terminal lysine (K14); C-terminal amide): ARTKQTARKSTGGK

binding [1]: binds
binding [2]: binds weakly
binding [3]: binds
binding [4]: binds weakly
binding [5]: binds
binding [6]: binds
B1: GST-tagged Mus musculus Taf3-PHD domain (residues 857-924), wild type (domain or fragment, UniProt Q5HZG4 857-924)
chain: YVIRDEWGNQIWICPGCNKPDDGSPMIGCDDCDDWYHWPCVGIMAAPPEEMQWFCPKCANKIKKDKKH

binding [7]: binds
binding [8]: binds weakly
binding [9]: binds
binding [10]: binds
B2: GST-Taf3-PHD (Mus musculus Taf3 PHD finger, residues 857-924, GST-tagged) (domain or fragment, UniProt Q5HZG4 857-924)
chain: B1 chain
